Data: US4877727A, “Substrate for determining leucine aminopeptidase or gamma-glutamyltranspeptase activity” (Kyowa Medex Co., Ltd., priority 1984, dated 1989)

Experiment: Sensitivity of pigment (free compound + EMSE + laccase)
Conditions: absorption at λmax, 37° C., 5 minutes; sensitivity of 5-aminosalicylic acid defined as 100
Protocol: 50 μl of 1 mM each free compound was added to 3 ml of 0.1M phosphate buffer containing 0.5 mg/ml EMSE and 1 U/ml laccase and the mixture was incubated at 37° C. for 5 minutes. The absorption of the reaction solution at λmax was measured. As a control, 5-aminosalicylic acid was used and the reaction of the compound with 2,6-xylenol was carried out in the presence of metaperiodate under strong alkaline conditions.
The results are shown, defining the sensitivity of 5-aminosalicylic acid as 100.

CC(C)C[C@H](N)C(=O)Nc1ccc(N(CCCS(=O)(=O)O)CCCS(=O)(=O)O)cc1 [Compound No. 2, L-leucyl-p-N,N-disulfopropyl aminoanilide]
SE: Sensitivity of pigment: > 500

CC(C)C[C@H](N)C(=O)Nc1ccc(O)c(C(=O)O)c1 [Control, reference compound]
SE: Sensitivity of pigment: 100

N[C@@H](CCC(=O)Nc1ccc(N(CCCS(=O)(=O)O)CCCS(=O)(=O)O)cc1)C(=O)O [compound 1]
SE: Sensitivity of pigment: > 500

CN(CCCS(=O)(=O)O)c1ccc(NC(=O)CC[C@H](N)C(=O)O)cc1 [compound 3]
SE: Sensitivity of pigment: > 500

CC(C)C[C@H](N)C(=O)Nc1ccc(N(C)CCCS(=O)(=O)O)cc1 [compound 4]
SE: Sensitivity of pigment: > 500

CCN(CC(O)CS(=O)(=O)O)c1ccc(NC(=O)CC[C@H](N)C(=O)O)cc1 (stereo partly drawn) [compound 5]
SE: Sensitivity of pigment: > 500

CCN(CC(O)CS(=O)(=O)O)c1ccc(NC(=O)[C@@H](N)CC(C)C)cc1 (stereo partly drawn) [compound 6]
SE: Sensitivity of pigment: > 500

N[C@@H](CCC(=O)Nc1ccc(N(CCCS(=O)(=O)O)CCCS(=O)(=O)O)c(S(=O)(=O)O)c1)C(=O)O [compound 7]
SE: Sensitivity of pigment: 237

CC(C)C[C@H](N)C(=O)Nc1ccc(N(CCCS(=O)(=O)O)CCCS(=O)(=O)O)c(S(=O)(=O)O)c1 [compound 8]
SE: Sensitivity of pigment: 237

N[C@@H](CCC(=O)Nc1ccc(N(CCCS(=O)(=O)O)CCCS(=O)(=O)O)c(Cl)c1)C(=O)O [compound 9]
SE: Sensitivity of pigment: 315

CC(C)C[C@H](N)C(=O)Nc1ccc(N(CCCS(=O)(=O)O)CCCS(=O)(=O)O)c(Cl)c1 [compound 10]
SE: Sensitivity of pigment: 315

CC(C)C[C@H](N)C(=O)Nc1ccc(N(CCS(=O)(=O)O)CCS(=O)(=O)O)c(C#N)c1 [compound 11]
SE: Sensitivity of pigment: 177

Cc1cc(NC(=O)[C@@H](N)CC(C)C)ccc1N(CCS(=O)(=O)O)CCS(=O)(=O)O [compound 12]
SE: Sensitivity of pigment: > 500

COC(=O)c1cc(NC(=O)[C@@H](N)CC(C)C)ccc1N(CCCCS(=O)(=O)O)CCCCS(=O)(=O)O [compound 13]
SE: Sensitivity of pigment: 312

COc1cc(N(CCCCS(=O)(=O)O)CCCCS(=O)(=O)O)c(C)cc1NC(=O)[C@@H](N)CC(C)C [compound 14]
SE: Sensitivity of pigment: 406
